According to patent publication US9517222B2, “Method for the treatment of senile dementia of the Alzheimer's type” (Phenomenome Discoveries Inc., priority 2007, dated 2016):

Experiments:
[1] = Serum ethanolamine phospholipid ratios to PtdEt 16:0/18:0 (M01) in human cohorts
[2] = Serum ethanolamine phospholipid levels in human cohorts (dementia severity, post-mortem pathology, age) by flow-injection MS/MS
[3] = serum, females, post mortem SDAT
[4] = serum, females, post mortem control

In the case of `CCCCCCCC/C=C\CCCCCCCC(=O)OC(COCCCCCCCCCCCCCCCCCC)COP(=O)(O)OCCN` (centres unmarked) [Metabolite M10, Plasmanyl 18:0/18:1], the “Ratio of ethanolamine phospholipid ratios to M01 between cohorts” value (shortened to “Ratio … to M01 between cohorts”) ([1]; AD, All to CN, Male) is reported as 0.910, the “Ratio … to M01 between cohorts” value ([1]; ADAS 5-19 to CN, Male) is reported as 0.932 and the “Ratio … to M01 between cohorts” value ([1]; ADAS 20-39 to CN, Male) is reported as 0.913. The “Ratio … to M01 between cohorts” value ([1]; ADAS 40-70 to CN, Male) was 0.843, the “Average serum ethanolamine phospholipid ratio to M01, Mean” value ([1]; Cognitive Normal, Male, serum) was 0.483 and the “Average serum ethanolamine phospholipid ratio to M01, Mean” value ([1]; SDAT, ADAS 5-19, Male, serum) was 0.450. For the same compound, the “Average serum ethanolamine phospholipid ratio to M01, Mean” value ([1]; SDAT, ADAS 20-39, Male, serum) was 0.441, the “Average serum ethanolamine phospholipid ratio to M01, Mean” value ([1]; SDAT, ADAS 40-70, Male, serum) was 0.408 and the “Average serum ethanolamine phospholipid ratio to M01, Mean” value ([1]; SDAT_all, Male, serum) was 0.440. For the same compound, the “Ethanolamine Phospholipid Ratio to M01, Mean, Age Ctl, 30-39, Female” value ([1]; human serum, females aged 30-39) was 0.491, the “Ethanolamine Phospholipid Ratio to M01, Mean, Age Ctl, 40-49, Female” value ([1]; human serum, females aged 40-49) was 0.535 and the “Ethanolamine Phospholipid Ratio to M01, Mean, Age Ctl, 50-59, Female” value ([1]; human serum, females aged 50-59) was 0.490. For the same compound, the “Ratio of Ethanolamine Phospholipid Ratio to M01, 50-59 vs. 40-49, Female” value ([1]; human serum, females aged 50-59 vs. females aged 40-49) was 0.917, the “Ethanolamine Phospholipid Ratio to M01, Mean, Age Ctl, 60-69, Female” value ([1]; human serum, females aged 60-69) was 0.424 and the “Ratio of Ethanolamine Phospholipid Ratio to M01, 60-69 vs. 40-49, Female” value ([1]; human serum, females aged 60-69 vs. females aged 40-49) was 0.792. The “Ethanolamine Phospholipid Ratio to M01, Mean, Age Ctl, 70+_Female” value ([1]; human serum, females aged 70+) was 0.422, the “Ratio of Ethanolamine Phospholipid Ratio to M01, 70+ vs. 40-49, Female” value ([1]; human serum, females aged 70+ vs. females aged 40-49) was 0.789 and the “Ratio of Ethanolamine Phospholipid Ratio to M01, 50-59 vs. 40-49, Male” value ([1]; human serum, males aged 50-59 vs. males aged 40-49) was 0.981. The “Ratio of Ethanolamine Phospholipid Ratio to M01, 60-69 vs. 40-49, Male” value ([1]; human serum, males aged 60-69 vs. males aged 40-49) was 0.924, the “Ratio of Ethanolamine Phospholipid Ratio to M01, 70+ vs. 40-49, Male” value ([1]; human serum, males aged 70+ vs. males aged 40-49) was 0.896 and the “Ratio of ethanolamine phospholipid ratio to M01, ADAS 5-19 to CN, Female” value ([1]; serum, females, ADAS 5-19 vs cognitive normal) was 0.963. For the same compound, the “Ratio of ethanolamine phospholipid ratio to M01, ADAS 20-39 to 5-19, Female” value ([1]; serum, females, ADAS 20-39 vs ADAS 5-19) was 0.948, the “Ratio of ethanolamine phospholipid ratio to M01, ADAS 20-39 to CN, Female” value ([1]; serum, females, ADAS 20-39 vs cognitive normal) was 0.913 and the “Ratio of ethanolamine phospholipid ratio to M01, ADAS 40-70 to 5-19, Female” value ([1]; serum, females, ADAS 40-70 vs ADAS 5-19) was 0.926. The “Ratio of ethanolamine phospholipid ratio to M01, ADAS 40-70 to 20-39, Female” value ([1]; serum, females, ADAS 40-70 vs ADAS 20-39) was 0.977, the “Ratio of ethanolamine phospholipid ratio to M01, ADAS 40-70 to CN, Female” value ([1]; serum, females, ADAS 40-70 vs cognitive normal) was 0.892 and the “Ethanolamine phospholipid ratio to M01, Mean, SDAT, ADAS 5-19, Female” value ([1]; serum, females, SDAT ADAS 5-19) was 0.451. For the same compound, the “Ethanolamine phospholipid ratio to M01, Mean, SDAT, ADAS 20-39, Female” value ([1]; serum, females, SDAT ADAS 20-39) was 0.428, the “Ethanolamine phospholipid ratio to M01, Mean, SDAT, ADAS 40-70, Female” value ([1]; serum, females, SDAT ADAS 40-70) was 0.418 and the “Ratio of ethanolamine phospholipid ratio to M01, AD, All to CN, Female” value ([1]; serum, females, all AD vs cognitive normal) was 0.919. For the same compound, the “Ethanolamine phospholipid ratio to M01, Mean, SDAT_all Female” value ([1]; serum, females, all SDAT) was 0.431, the “Ratio of ethanolamine phospholipid ratio to M01, Autopsy AD vs. Control, Female” value ([1]; serum, females, autopsy AD vs post mortem control) was 1.003 and the “Ethanolamine phospholipid ratio to M01, Mean, Cognitive Normal, Female” value ([1]; serum, females, cognitive normal) was 0.469. For the same compound, the “Ethanolamine phospholipid ratio to M01, Mean, Post Mortem SDAT Female” value [1, 3] was 0.291, the “Ethanolamine phospholipid ratio to M01, Mean, Post Mortem Ctl, Female” value [1, 4] was 0.290 and the “Ratio of ethanolamine phospholipid ratio to M01, ADAS 20-39 to 5-19, Male” value ([1]; serum, males, SDAT ADAS 20-39 vs ADAS 5-19) was 0.980. The “Ratio of ethanolamine phospholipid ratio to M01, ADAS 40-70 to 5-19, Male” value ([1]; serum, males, SDAT ADAS 40-70 vs ADAS 5-19) was 0.905, the “Ratio of ethanolamine phospholipid ratio to M01, ADAS 40-70 to 20-39, Male” value ([1]; serum, males, SDAT ADAS 40-70 vs ADAS 20-39) was 0.923 and the “Ethanolamine phospholipid ratio to M01, Mean, Age Ctl, 30-39, Male” value ([1]; serum, males, age control 30-39) was 0.464. For the same compound, the “Ethanolamine phospholipid ratio to M01, Mean, Age Ctl, 40-49, Male” value ([1]; serum, males, age control 40-49) was 0.454, the “Ethanolamine phospholipid ratio to M01, Mean, Age Ctl, 50-59, Male” value ([1]; serum, males, age control 50-59) was 0.445 and the “Ethanolamine phospholipid ratio to M01, Mean, Age Ctl, 60-69, Male” value ([1]; serum, males, age control 60-69) was 0.419. The “Ethanolamine phospholipid ratio to M01, Mean, Age Ctl, 70+_Male” value ([1]; serum, males, age control 70+) was 0.407, the “Ethanolamine phospholipid ratio to M01, Mean, Post Mortem SDAT Male” value ([1]; serum, males, post mortem SDAT) was 0.269 and the “Ratio of ethanolamine phospholipid ratio to M01, SDAT vs Control (post mortem, males)” value ([1]; serum, males, post mortem SDAT vs post mortem control) was 0.798. For the same compound, the “Ethanolamine phospholipid ratio to M01, Mean, Post Mortem Ctl, Male” value ([1]; serum, males, post mortem control) was 0.337, the “Ratio of serum levels” value ([2]; AD, All to CN, Male) was 0.960 and the “Ratio of serum levels” value ([2]; ADAS 5-19 to CN, Male) was 0.978. The “Ratio of serum levels” value ([2]; ADAS 20-39 to 5-19, Male) was 0.963, the “Ratio of serum levels” value ([2]; ADAS 20-39 to CN, Male) was 0.942 and the “Ratio of serum levels” value ([2]; ADAS 40-70 to 5-19, Male) was 0.897. The “Ratio of serum levels” value ([2]; ADAS 40-70 to 20-39, Male) was 0.932, the “Ratio of serum levels” value ([2]; ADAS 40-70 to CN, Male) was 0.877 and the “Serum level, Mean” value ([2]; Cognitive Normal, Female) was 0.054. For the same compound, the “Average serum level, Mean” value ([2]; Cognitive Normal, Male) was 0.054, the “Serum level, Mean” value ([2]; Post Mortem Ctl, Male) was 0.041 and the “Serum level, Mean” value ([2]; Post Mortem SDAT Male) was 0.036. The “Ratio of serum levels” value ([2]; Post mortem SDAT vs Control, Male) was 0.608, the “Serum level, Mean” value ([2]; SDAT, ADAS 5-19, Female) was 0.049 and the “Average serum level, Mean” value ([2]; SDAT, ADAS 5-19, Male) was 0.053. The “Serum level, Mean” value ([2]; SDAT, ADAS 20-39, Female) was 0.047, the “Average serum level, Mean” value ([2]; SDAT, ADAS 20-39, Male) was 0.051 and the “Serum level, Mean” value ([2]; SDAT, ADAS 40-70, Female) was 0.048. For the same compound, the “Average serum level, Mean” value ([2]; SDAT, ADAS 40-70, Male) was 0.047, the “Serum level, Mean” value ([2]; SDAT_all, Female) was 0.048 and the “Average serum level, Mean” value ([2]; SDAT_all, Male) was 0.052. For the same compound, the “Ratio, ADAS 5-19 to CN, Female” value ([2]; serum level ratio, females, ADAS 5-19 vs CN) was 0.895, the “Ratio, ADAS 20-39 to 5-19, Female” value ([2]; serum level ratio, females, ADAS 20-39 vs ADAS 5-19) was 0.961 and the “Ratio, ADAS 20-39 to CN, Female” value ([2]; serum level ratio, females, ADAS 20-39 vs CN) was 0.860. For the same compound, the “Ratio, ADAS 40-70 to 5-19, Female” value ([2]; serum level ratio, females, ADAS 40-70 vs ADAS 5-19) was 0.987, the “Ratio, ADAS 40-70 to 20-39, Female” value ([2]; serum level ratio, females, ADAS 40-70 vs ADAS 20-39) was 1.027 and the “Ratio, ADAS 40-70 to CN, Female” value ([2]; serum level ratio, females, ADAS 40-70 vs CN) was 0.883. For the same compound, the “Ratio, 50-59 vs. 40-49, Female” value ([2]; serum level ratio, females, age 50-59 vs 40-49) was 0.841, the “Ratio, 60-69 vs. 40-49, Female” value ([2]; serum level ratio, females, age 60-69 vs 40-49) was 0.882 and the “Ratio, 70+ vs. 40-49, Female” value ([2]; serum level ratio, females, age 70+ vs 40-49) was 0.863. For the same compound, the “Ratio, AD, All to CN, Female” value ([2]; serum level ratio, females, all AD vs cognitively normal) was 0.877, the “Ratio, Autopsy AD vs. Control, Female” value ([2]; serum level ratio, females, autopsy AD vs control) was 0.672 and the “Ratio, 50-59 vs. 40-49, Male” value ([2]; serum level ratio, males, age 50-59 vs 40-49) was 0.953. The “Ratio, 60-69 vs. 40-49, Male” value ([2]; serum level ratio, males, age 60-69 vs 40-49) was 1.061, the “Ratio, 70+ vs. 40-49, Male” value ([2]; serum level ratio, males, age 70+ vs 40-49) was 1.013 and the “Mean serum level, Age Ctl, 30-39, Female” value ([2]; serum, females, age 30-39) was 0.050. The “Mean serum level, Age Ctl, 40-49, Female” value ([2]; serum, females, age 40-49) was 0.059, the “Mean serum level, Age Ctl, 50-59, Female” value ([2]; serum, females, age 50-59) was 0.049 and the “Mean serum level, Age Ctl, 60-69, Female” value ([2]; serum, females, age 60-69) was 0.052. The “Mean serum level, Age Ctl, 70+, Female” value ([2]; serum, females, age 70+) was 0.051, the “Mean serum level, Post Mortem SDAT, Female” value [2, 3] was 0.025 and the “Mean serum level, Post Mortem Ctl, Female” value [2, 4] was 0.053. For the same compound, the “Mean serum level, Age Ctl, 30-39, Male” value ([2]; serum, males, age 30-39) was 0.058, the “Mean serum level, Age Ctl, 40-49, Male” value ([2]; serum, males, age 40-49) was 0.052 and the “Mean serum level, Age Ctl, 50-59, Male” value ([2]; serum, males, age 50-59) was 0.049. The “Mean serum level, Age Ctl, 60-69, Male” value ([2]; serum, males, age 60-69) was 0.055 and the “Mean serum level, Age Ctl, 70+, Male” value ([2]; serum, males, age 70+) was 0.053.

A unit is not stated for every read-out.
